Data as given in PubChem BioAssay AID1224830 (NIAID, 2016)

- Assay: 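Genes whose knock-down alters the TNF-alpha reporter response to LPS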 (primary screen)
- Cells: human THP-1 monocytic leukaemia cells, TNF dual-luciferase reporter clone, PMA-differentiated to macrophage-like cells
- Knock-down reagent: siRNA pool against human genes, 50 nM
- Time to read-out: LPS for 4 h, given about 3 days after siRNA transfection
- Challenge: bacterial LPS (TLR4 ligand), 10 ng/ml
- Measurement: 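TNF firefly reporter luminescence divided by renilla, normalised to the plate median, then turned into a robust z-score for each replicate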
- Scale: TNF reporter robust z-score: higher = stronger TNF reporter response to LPS
- Active means: 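a well is active when its z-score exceeds 2.8 or falls below -1.5; control wells carry no call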
This is a random part of about 18,000 deposited reagents. About 2,900 of all reagents (16%) were called active. 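Calls are made per well; low scores hint the gene aids the LPS response, high scores that it dampens it.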 Repeated entries: four replicate wells of each siRNA pool.

| Gene | TNF reporter robust z-score | Call |
| --- | --- | --- |
| MAST3 | -1.99 | active |
| MAST3 | -0.72 | inactive |
| MAST3 | -0.74 | inactive |
| MAST3 | -0.89 | inactive |
| SUMO1 | 0.04 | inactive |
| SUMO1 | -0.33 | inactive |
| SUMO1 | -0.43 | inactive |
| SUMO1 | -0.03 | inactive |
| MOGS | 0.44 | inactive |
| MOGS | 1.08 | inactive |
| MOGS | -0.63 | inactive |
| MOGS | -0.16 | inactive |
| BNC2 | 0.15 | inactive |
| BNC2 | 0.83 | inactive |
| BNC2 | 1.13 | inactive |
| BNC2 | 0.61 | inactive |
| SRCAP | -0.46 | inactive |
| SRCAP | 0.97 | inactive |
| SRCAP | -0.29 | inactive |
| SRCAP | 0.94 | inactive |
| GAS2L1 | 2.1 | inactive |
| GAS2L1 | 3.31 | active |
| GAS2L1 | 0.25 | inactive |
| GAS2L1 | 0.04 | inactive |
| CMTM7 | 1.16 | inactive |
| CMTM7 | 0.53 | inactive |
| CMTM7 | -0.02 | inactive |
| CMTM7 | 0.51 | inactive |

The list goes on, starting with the last 8 of the part before.
| Gene | TNF reporter robust z-score | Call |
| --- | --- | --- |
| GAS2L1 | 2.1 | inactive |
| GAS2L1 | 3.31 | active |
| GAS2L1 | 0.25 | inactive |
| GAS2L1 | 0.04 | inactive |
| CMTM7 | 1.16 | inactive |
| CMTM7 | 0.53 | inactive |
| CMTM7 | -0.02 | inactive |
| CMTM7 | 0.51 | inactive |
| MAP3K8 | -1.43 | inactive |
| MAP3K8 | -0.53 | inactive |
| MAP3K8 | -0.99 | inactive |
| MAP3K8 | -0.96 | inactive |
| RIBC1 | -0.94 | inactive |
| RIBC1 | -0.17 | inactive |
| RIBC1 | -1.33 | inactive |
| RIBC1 | 0.44 | inactive |
| ACOT12 | 0.86 | inactive |
| ACOT12 | 0.9 | inactive |
| ACOT12 | 1.07 | inactive |
| ACOT12 | 1.43 | inactive |
| LRP2BP | -0.82 | inactive |
| LRP2BP | -0.64 | inactive |
| LRP2BP | -1.02 | inactive |
| LRP2BP | -0.57 | inactive |
| DOCK5 | -1.28 | inactive |
| DOCK5 | -0.82 | inactive |
| DOCK5 | -1.15 | inactive |
| DOCK5 | -1 | inactive |
| TBX22 | 0.13 | inactive |
| TBX22 | -0.02 | inactive |
| TBX22 | 0.37 | inactive |
| TBX22 | 0.4 | inactive |
| TSPAN33 | -0.06 | inactive |
| TSPAN33 | -1.19 | inactive |
| TSPAN33 | -0.56 | inactive |
| TSPAN33 | 0.72 | inactive |
| OR6M1 | -0.69 | inactive |
| OR6M1 | 0.68 | inactive |
| OR6M1 | 1.58 | inactive |
| OR6M1 | 1.5 | inactive |
| TXN2 | 0.39 | inactive |
| TXN2 | 0.78 | inactive |
| TXN2 | 0.5 | inactive |
| TXN2 | 0.28 | inactive |
| FOXP3 | 0.7 | inactive |
| FOXP3 | 0.46 | inactive |
| FOXP3 | 0.85 | inactive |
| FOXP3 | 1.15 | inactive |
| PIP4K2C | 1.67 | inactive |
| PIP4K2C | 1.69 | inactive |
| PIP4K2C | 2.55 | inactive |
| PIP4K2C | 2.18 | inactive |
| THUMPD1 | 0.81 | inactive |
| THUMPD1 | 0.93 | inactive |
| THUMPD1 | 0.5 | inactive |
| THUMPD1 | 1.3 | inactive |
